The values that follow come from article PMC9372748.

Chains of the proteins cited; added tags and fusions are not shown. Lines headed by an entry give the natural chain unless they say otherwise; changes in a name come on top.
UniProt P35637: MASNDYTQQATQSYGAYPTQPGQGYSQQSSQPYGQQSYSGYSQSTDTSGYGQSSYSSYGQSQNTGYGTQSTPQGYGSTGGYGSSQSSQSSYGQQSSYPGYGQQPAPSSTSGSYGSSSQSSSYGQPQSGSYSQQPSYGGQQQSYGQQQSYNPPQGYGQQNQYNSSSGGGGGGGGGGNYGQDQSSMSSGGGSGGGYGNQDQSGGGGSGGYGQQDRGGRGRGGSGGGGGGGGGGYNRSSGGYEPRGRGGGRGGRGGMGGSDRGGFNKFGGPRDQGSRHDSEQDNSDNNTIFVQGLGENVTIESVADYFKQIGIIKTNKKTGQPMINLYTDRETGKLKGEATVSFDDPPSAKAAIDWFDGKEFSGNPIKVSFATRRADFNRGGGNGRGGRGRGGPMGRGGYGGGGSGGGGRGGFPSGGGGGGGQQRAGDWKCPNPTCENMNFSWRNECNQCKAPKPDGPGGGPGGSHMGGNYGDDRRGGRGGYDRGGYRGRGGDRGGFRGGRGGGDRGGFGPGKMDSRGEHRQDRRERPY
UniProt Q01844: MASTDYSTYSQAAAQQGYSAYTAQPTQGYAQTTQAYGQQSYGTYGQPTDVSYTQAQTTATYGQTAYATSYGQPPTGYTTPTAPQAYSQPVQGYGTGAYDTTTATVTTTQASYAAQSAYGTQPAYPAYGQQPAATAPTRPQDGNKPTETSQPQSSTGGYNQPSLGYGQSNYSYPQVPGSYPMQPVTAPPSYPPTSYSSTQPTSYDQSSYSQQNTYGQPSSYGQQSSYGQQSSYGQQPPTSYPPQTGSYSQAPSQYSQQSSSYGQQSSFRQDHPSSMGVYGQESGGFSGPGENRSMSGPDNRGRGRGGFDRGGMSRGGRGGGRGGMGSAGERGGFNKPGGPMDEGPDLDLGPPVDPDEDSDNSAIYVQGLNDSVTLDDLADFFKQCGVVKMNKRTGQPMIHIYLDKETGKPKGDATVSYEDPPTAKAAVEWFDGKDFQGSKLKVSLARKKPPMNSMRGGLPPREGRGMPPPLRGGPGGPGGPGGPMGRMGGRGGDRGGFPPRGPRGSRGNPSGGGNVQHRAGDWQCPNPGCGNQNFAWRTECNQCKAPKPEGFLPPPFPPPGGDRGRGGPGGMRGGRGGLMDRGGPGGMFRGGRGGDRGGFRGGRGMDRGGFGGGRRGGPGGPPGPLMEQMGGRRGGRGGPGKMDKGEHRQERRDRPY
UniProt Q13283: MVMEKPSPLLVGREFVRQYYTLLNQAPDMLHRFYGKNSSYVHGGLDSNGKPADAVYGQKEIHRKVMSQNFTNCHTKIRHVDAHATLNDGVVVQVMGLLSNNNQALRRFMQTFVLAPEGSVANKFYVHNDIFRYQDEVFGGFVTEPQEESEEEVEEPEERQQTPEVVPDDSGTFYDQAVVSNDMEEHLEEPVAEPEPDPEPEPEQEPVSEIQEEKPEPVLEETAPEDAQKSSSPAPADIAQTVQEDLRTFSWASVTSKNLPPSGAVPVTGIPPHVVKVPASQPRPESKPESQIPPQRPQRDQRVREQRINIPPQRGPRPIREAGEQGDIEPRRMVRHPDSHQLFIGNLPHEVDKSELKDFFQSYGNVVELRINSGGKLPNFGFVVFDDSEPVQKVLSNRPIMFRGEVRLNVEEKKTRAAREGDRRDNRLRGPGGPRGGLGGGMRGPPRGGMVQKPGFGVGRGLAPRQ
UniProt P05198: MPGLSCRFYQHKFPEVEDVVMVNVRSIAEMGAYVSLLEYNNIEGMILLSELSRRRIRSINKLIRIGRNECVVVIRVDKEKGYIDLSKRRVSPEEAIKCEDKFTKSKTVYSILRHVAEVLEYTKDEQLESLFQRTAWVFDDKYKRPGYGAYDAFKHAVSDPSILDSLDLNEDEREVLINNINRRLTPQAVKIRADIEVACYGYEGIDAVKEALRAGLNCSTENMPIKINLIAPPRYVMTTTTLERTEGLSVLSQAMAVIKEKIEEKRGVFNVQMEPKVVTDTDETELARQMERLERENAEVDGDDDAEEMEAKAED

No constants are given. Whether binding was seen depends on the method and setting. In cells and extracts the contact can be indirect. Some entries that bind do so weakly or less than the wild type.

The target in assay [1] is GFP-Strep-FUS P525L (human) (UniProt P35637). Kind of assay: co-IP; GFP-Twin-Strep-FUS variants transfected in HEK293T; whole-cell lysate (postnuclear supernatant pooled with nuclear lysates, benzonase in the nuclear lysis buffer); MagStrep Type3 (Strep-TactinXT) beads overnight at 4 °C, washes in HGN 165 buffer; immunoblot for endogenous proteins (Fig. 4A). On the technique in general: In western blotting, separated proteins are transferred to a membrane and probed.

In assay [2] the target is GFP-Strep-FUS WT (human) (UniProt P35637). The assay is described as above.
In assay [3] the target is GFP-Strep-FUS P525L (human) (UniProt P35637). Kind of assay: co-IP; GFP-Twin-Strep-FUS variants transfected in HEK293T; lysate fractionated into cytoplasmic and nuclear fractions kept separate; MagStrep Type3 (Strep-TactinXT) beads overnight at 4 °C, washes in HGN 165 buffer; immunoblot for endogenous proteins (Fig. 4B).
Assay [4] deals with GFP-Strep-FUS WT (human) (UniProt P35637). The description is as above.

For EWS (from UniProt Q01844 1-656), the binding entry in assay [1] and in assay [2] was “binds” each time.
As for G3BP1 (from UniProt Q13283 1-466), the binding result in assay [3] is “binds”.
Consider eIF2α (from UniProt P05198 1-315), for which the binding result in assay [3] and in assay [4] was “binds” throughout.

B1: UPF1 (protein, UniProt Q92900 1-1129)
chain: MSVEAYGPSSQTLTFLDTEEAELLGADTQGSEFEFTDFTLPSQTQTPPGGPGGPGGGGAGGPGGAGAGAAAGQLDAQVGPEGILQNGAVDDSVAKTSQLLAELNFEEDEEDTYYTKDLPIHACSYCGIHDPACVVYCNTSKKWFCNGRGNTSGSHIVNHLVRAKCKEVTLHKDGPLGETVLECYNCGCRNVFLLGFIPAKADSVVVLLCRQPCASQSSLKDINWDSSQWQPLIQDRCFLSWLVKIPSEQEQLRARQITAQQINKLEELWKENPSATLEDLEKPGVDEEPQHVLLRYEDAYQYQNIFGPLVKLEADYDKKLKESQTQDNITVRWDLGLNKKRIAYFTLPKTDSGNEDLVIIWLRDMRLMQGDEICLRYKGDLAPLWKGIGHVIKVPDNYGDEIAIELRSSVGAPVEVTHNFQVDFVWKSTSFDRMQSALKTFAVDETSVSGYIYHKLLGHEVEDVIIKCQLPKRFTAQGLPDLNHSQVYAVKTVLQRPLSLIQGPPGTGKTVTSATIVYHLARQGNGPVLVCAPSNIAVDQLTEKIHQTGLKVVRLCAKSREAIDSPVSFLALHNQIRNMDSMPELQKLQQLKDETGELSSADEKRYRALKRTAERELLMNADVICCTCVGAGDPRLAKMQFRSILIDESTQATEPECMVPVVLGAKQLILVGDHCQLGPVVMCKKAAKAGLSQSLFERLVVLGIRPIRLQVQYRMHPALSAFPSNIFYEGSLQNGVTAADRVKKGFDFQWPQPDKPMFFYVTQGQEEIASSGTSYLNRTEAANVEKITTKLLKAGAKPDQIGIITPYEGQRSYLVQYMQFSGSLHTKLYQEVEIASVDAFQGREKDFIILSCVRANEHQGIGFLNDPRRLNVALTRARYGVIIVGNPKALSKQPLWNHLLNYYKEQKVLVEGPLNNLRESLMQFSKPRKLVNTINPGARFMTTAMYDAREAIIPGSVYDRSSQGRPSSMYFQTHDQIGMISAGPSHVAAMNIPIPFNLVMPPMPPPGYFGQANGPAAGRGTPKGKTGRGGRQKNRFGLPGPSQTNLPNSQASQDVASQPFSQGALTQGYISMSQPSQMSQPGLSQPELSQDSYLGDEFKSQIDVALSQDSTYQGERAYQHGGVTGLSQY
Consider B1, for which the binding entry in assay [3] and in assay [4] was “binds” in each case.

B2: MOV10 (protein, UniProt Q9HCE1 1-1003)
chain: MPSKFSCRQLREAGQCFESFLVVRGLDMETDRERLRTIYNRDFKISFGTPAPGFSSMLYGMKIANLAYVTKTRVRFFRLDRWADVRFPEKRRMKLGSDISKHHKSLLAKIFYDRAEYLHGKHGVDVEVQGPHEARDGQLLIRLDLNRKEVLTLRLRNGGTQSVTLTHLFPLCRTPQFAFYNEDQELPCPLGPGECYELHVHCKTSFVGYFPATVLWELLGPGESGSEGAGTFYIARFLAAVAHSPLAAQLKPMTPFKRTRITGNPVVTNRIEEGERPDRAKGYDLELSMALGTYYPPPRLRQLLPMLLQGTSIFTAPKEIAEIKAQLETALKWRNYEVKLRLLLHLEELQMEHDIRHYDLESVPMTWDPVDQNPRLLTLEVPGVTESRPSVLRGDHLFALLSSETHQEDPITYKGFVHKVELDRVKLSFSMSLLSRFVDGLTFKVNFTFNRQPLRVQHRALELTGRWLLWPMLFPVAPRDVPLLPSDVKLKLYDRSLESNPEQLQAMRHIVTGTTRPAPYIIFGPPGTGKTVTLVEAIKQVVKHLPKAHILACAPSNSGADLLCQRLRVHLPSSIYRLLAPSRDIRMVPEDIKPCCNWDAKKGEYVFPAKKKLQEYRVLITTLITAGRLVSAQFPIDHFTHIFIDEAGHCMEPESLVAIAGLMEVKETGDPGGQLVLAGDPRQLGPVLRSPLTQKHGLGYSLLERLLTYNSLYKKGPDGYDPQFITKLLRNYRSHPTILDIPNQLYYEGELQACADVVDRERFCRWAGLPRQGFPIIFHGVMGKDEREGNSPSFFNPEEAATVTSYLKLLLAPSSKKGKARLSPRSVGVISPYRKQVEKIRYCITKLDRELRGLDDIKDLKVGSVEEFQGQERSVILISTVRSSQSFVQLDLDFNLGFLKNPKRFNVAVTRAKALLIIVGNPLLLGHDPDWKVFLEFCKENGGYTGCPFPAKLDLQQGQNLLQGLSKLSPSTSGPHSHDYLPQEREGEGGLSLQVEPEWRNEL
B2: the binding result in assay [3] and in assay [4] was “binds” each time.
